Results from paper PMC10952895, “Assessment of the potential of novel and classical opioids to induce respiratory depression in mice” (British Journal of Pharmacology, 2023).

System: T1, μ-receptor (μ-receptor-RLuc8)
T1 construct: gene Oprm1; construct from Gillis, Gondin et al. 2020
Assay: BRET, Nb33-Venus recruitment to μ-receptor-RLuc8 in HEK293 cells
Type: cell-based
Conditions: agonist; 10 min after addition, normalised to DAMGO

Compound: CCC(=O)C(CC(C)N(C)C)(c1ccccc1)c1ccccc1 (stereo not shown) [methadone]
- pEC50: 6.5 ± 0.05
